Experimental data as given in PMC7333476.
These are yes or no findings as the source states them, for the method shown. In cells and extracts the contact can be indirect. Some entries that bind do so weakly or less than the wild type.

Protein sequences, listed by entry. Tags and fused reporters are not part of them. Lines headed by an entry give the natural chain unless they say otherwise; changes in a name come on top. Chains listed by the source or under a name are the forms on record and can include a tag or linker.
UniProt P01106: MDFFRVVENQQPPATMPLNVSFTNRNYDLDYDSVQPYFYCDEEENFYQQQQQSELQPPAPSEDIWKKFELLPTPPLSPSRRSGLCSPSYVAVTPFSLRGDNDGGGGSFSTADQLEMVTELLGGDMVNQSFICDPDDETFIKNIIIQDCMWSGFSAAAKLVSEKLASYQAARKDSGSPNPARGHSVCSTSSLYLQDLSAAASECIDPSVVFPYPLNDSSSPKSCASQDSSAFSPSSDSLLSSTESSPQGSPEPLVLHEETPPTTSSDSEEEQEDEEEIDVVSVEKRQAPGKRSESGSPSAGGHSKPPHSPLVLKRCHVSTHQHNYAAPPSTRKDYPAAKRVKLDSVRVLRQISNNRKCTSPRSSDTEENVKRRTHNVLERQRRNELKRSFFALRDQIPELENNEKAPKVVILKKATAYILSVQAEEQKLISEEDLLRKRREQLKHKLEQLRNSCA
UniProt P49841: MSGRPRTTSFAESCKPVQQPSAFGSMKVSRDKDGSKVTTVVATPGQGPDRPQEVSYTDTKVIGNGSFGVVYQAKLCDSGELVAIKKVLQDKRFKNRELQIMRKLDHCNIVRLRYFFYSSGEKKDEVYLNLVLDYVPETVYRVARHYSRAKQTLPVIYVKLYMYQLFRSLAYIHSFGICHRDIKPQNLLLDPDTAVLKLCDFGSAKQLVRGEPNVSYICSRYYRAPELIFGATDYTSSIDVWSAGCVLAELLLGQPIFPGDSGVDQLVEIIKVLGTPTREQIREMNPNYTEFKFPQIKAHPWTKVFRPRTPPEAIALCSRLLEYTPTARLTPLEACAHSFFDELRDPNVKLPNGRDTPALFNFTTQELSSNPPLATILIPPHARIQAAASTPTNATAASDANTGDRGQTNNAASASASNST
UniProt Q969H0: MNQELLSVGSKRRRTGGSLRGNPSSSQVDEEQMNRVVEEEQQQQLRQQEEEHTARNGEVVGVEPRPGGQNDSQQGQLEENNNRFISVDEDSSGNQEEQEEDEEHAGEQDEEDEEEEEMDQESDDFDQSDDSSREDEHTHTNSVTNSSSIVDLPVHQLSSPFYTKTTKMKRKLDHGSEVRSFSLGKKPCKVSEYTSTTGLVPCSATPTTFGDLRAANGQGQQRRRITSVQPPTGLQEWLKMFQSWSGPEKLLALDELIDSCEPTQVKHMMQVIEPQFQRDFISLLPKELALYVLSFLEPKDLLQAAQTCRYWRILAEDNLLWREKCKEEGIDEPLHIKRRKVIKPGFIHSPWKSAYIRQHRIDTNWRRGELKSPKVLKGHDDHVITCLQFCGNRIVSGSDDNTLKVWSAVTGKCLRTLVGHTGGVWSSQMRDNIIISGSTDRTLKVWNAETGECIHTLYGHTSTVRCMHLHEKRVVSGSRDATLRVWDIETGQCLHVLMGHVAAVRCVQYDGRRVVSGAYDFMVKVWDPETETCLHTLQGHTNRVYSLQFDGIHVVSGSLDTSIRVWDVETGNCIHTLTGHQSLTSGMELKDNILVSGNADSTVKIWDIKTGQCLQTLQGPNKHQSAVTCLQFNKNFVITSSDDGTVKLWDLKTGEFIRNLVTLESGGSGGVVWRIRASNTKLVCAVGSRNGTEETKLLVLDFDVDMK
Venus-Flag (VF)-tagged NSD3S (Q9BZ95-3, form named): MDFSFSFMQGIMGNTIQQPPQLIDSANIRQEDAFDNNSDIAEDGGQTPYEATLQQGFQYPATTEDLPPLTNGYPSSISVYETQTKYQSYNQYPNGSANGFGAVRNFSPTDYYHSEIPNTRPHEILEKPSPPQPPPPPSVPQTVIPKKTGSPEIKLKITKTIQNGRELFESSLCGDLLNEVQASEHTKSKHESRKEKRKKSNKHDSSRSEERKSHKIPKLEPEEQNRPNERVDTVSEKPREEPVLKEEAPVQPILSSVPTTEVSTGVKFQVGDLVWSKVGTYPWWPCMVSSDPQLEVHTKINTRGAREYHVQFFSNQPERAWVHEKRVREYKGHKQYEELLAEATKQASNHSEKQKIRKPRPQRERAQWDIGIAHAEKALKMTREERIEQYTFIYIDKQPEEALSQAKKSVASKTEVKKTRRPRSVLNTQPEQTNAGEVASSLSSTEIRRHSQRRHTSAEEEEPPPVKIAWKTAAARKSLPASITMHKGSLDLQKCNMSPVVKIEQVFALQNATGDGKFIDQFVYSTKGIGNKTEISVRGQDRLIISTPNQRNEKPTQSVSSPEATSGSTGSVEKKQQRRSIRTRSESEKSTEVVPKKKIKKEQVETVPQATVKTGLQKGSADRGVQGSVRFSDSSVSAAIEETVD

Each substance was assayed against MYC, endogenous (human (endogenous in HEK293T)) (UniProt P01106) (assay: co-IP; endogenous MYC immunoprecipitated with MYC antibody (sc-40) overnight at 4°C and protein A/G agarose from HEK293T lysate (0.25% Triton X-100 lysis buffer); with overexpressed VF-vector, VF-NSD3S or VF-NSD3SΔ15).
In the case of “glycogen synthase kinase 3β (GSK3β), endogenous (from UniProt P49841 1-420) (enzyme)”, the binding is reported as “binds”.
With “F-box and WD repeat domain containing 7 (FBXW7), endogenous (from UniProt Q969H0 1-707)” the binding was “binds”.
For “Venus-Flag (VF)-tagged NSD3S (from UniProt Q9BZ95-3 1-645)”, the binding was “binds”.
